Measurements taken from the supplement of paper PMC8728848.
The list shows a part of the results.

Assays:
Experiment in all cases: glycan array binding signal (z-score within array); higher = stronger binding
Conditions in all cases: glycan notation: IUPAC condensed, linker removed
GlcNAc(b1-3)Gal(b1-4)Glc = molecular target: GlcNAc(b1-3)Gal(b1-4)Glc
Summary of the method: (§1)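 The binding signal is a Z-score computed within each array and averaged over linkers. Arrays of the same protein sequence at different concentrations or buffers were also averaged together. Data originate from 3228 arrays in the Consortium for Functional Glycomics database, kept only where the protein sequence was available.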

[1] = molecular target: GlcNAc(b1-3)Gal(b1-4)GlcNAc
Summary of the method: as §1

[2] = molecular target: GlcNAc(b1-3)Gal(b1-4)GlcNAc(b1-2)Man(a1-3)[GlcNAc(b1-3)Gal(b1-4)GlcNAc(b1-2)Man(a1-6)]Man(b1-4)GlcNAc(b1-4)GlcNAc
Summary of the method: as §1

[3] = molecular target: GlcNAc(b1-3)Gal(b1-4)GlcNAc(b1-2)Man(a1-3)[GlcNAc(b1-3)Gal(b1-4)GlcNAc(b1-2)Man(a1-6)]Man(b1-4)GlcNAc(b1-4)[Fuc(a1-6)]GlcNAc
Summary of the method: as §1

[4] = molecular target: GlcNAc(b1-3)Gal(b1-4)GlcNAc(b1-2)[GlcNAc(b1-3)Gal(b1-4)GlcNAc(b1-6)]Man(a1-6)[GlcNAc(b1-3)Gal(b1-4)GlcNAc(b1-2)Man(a1-3)]Man(b1-4)GlcNAc(b1-4)GlcNAc
Summary of the method: as §1

[5] = molecular target: GlcNAc(b1-3)Gal(b1-4)GlcNAc(b1-3)Gal(b1-4)GlcNAc
Summary of the method: as §1

[6] = molecular target: GlcNAc(b1-3)Gal(b1-4)GlcNAc(b1-3)Gal(b1-4)GlcNAc(b1-2)Man(a1-3)[GlcNAc(b1-3)Gal(b1-4)GlcNAc(b1-3)Gal(b1-4)GlcNAc(b1-2)Man(a1-6)]Man(b1-4)GlcNAc(b1-4)GlcNAc
Summary of the method: as §1

[7] = molecular target: GlcNAc(b1-3)Gal(b1-4)GlcNAc(b1-3)Gal(b1-4)GlcNAc(b1-2)Man(a1-3)[GlcNAc(b1-3)Gal(b1-4)GlcNAc(b1-3)Gal(b1-4)GlcNAc(b1-2)Man(a1-6)]Man(b1-4)GlcNAc(b1-4)[Fuc(a1-6)]GlcNAc
Summary of the method: as §1

[8] = molecular target: GlcNAc(b1-3)Gal(b1-4)GlcNAc(b1-3)Gal(b1-4)GlcNAc(b1-2)[GlcNAc(b1-3)Gal(b1-4)GlcNAc(b1-3)Gal(b1-4)GlcNAc(b1-6)]Man(a1-6)[GlcNAc(b1-3)Gal(b1-4)GlcNAc(b1-3)Gal(b1-4)GlcNAc(b1-2)Man(a1-3)]Man(b1-4)GlcNAc(b1-4)[Fuc(a1-6)]GlcNAc
Summary of the method: as §1

[9] = molecular target: GlcNAc(b1-3)Gal(b1-4)GlcNAc(b1-3)Gal(b1-4)GlcNAc(b1-3)Gal(b1-4)GlcNAc(b1-2)Man(a1-3)[GlcNAc(b1-3)Gal(b1-4)GlcNAc(b1-3)Gal(b1-4)GlcNAc(b1-3)Gal(b1-4)GlcNAc(b1-2)Man(a1-6)]Man(b1-4)GlcNAc(b1-4)GlcNAc
Summary of the method: as §1

[10] = molecular target: GlcNAc(b1-3)Gal(b1-4)GlcNAc(b1-3)Gal(b1-4)GlcNAc(b1-3)Gal(b1-4)GlcNAc(b1-2)Man(a1-3)[GlcNAc(b1-3)Gal(b1-4)GlcNAc(b1-3)Gal(b1-4)GlcNAc(b1-3)Gal(b1-4)GlcNAc(b1-2)Man(a1-6)]Man(b1-4)GlcNAc(b1-4)[Fuc(a1-6)]GlcNAc
Summary of the method: as §1

[11] = molecular target: GlcNAc(b1-3)Gal(b1-4)GlcNAc(b1-3)Gal(b1-4)GlcNAc(b1-3)Gal(b1-4)GlcNAc(b1-2)[GlcNAc(b1-3)Gal(b1-4)GlcNAc(b1-3)Gal(b1-4)GlcNAc(b1-3)Gal(b1-4)GlcNAc(b1-6)]Man(a1-6)[GlcNAc(b1-3)Gal(b1-4)GlcNAc(b1-3)Gal(b1-4)GlcNAc(b1-3)Gal(b1-4)GlcNAc(b1-2)Man(a1-3)]Man(b1-4)GlcNAc(b1-4)[Fuc(a1-6)]GlcNAc
Summary of the method: as §1

[12] = molecular target: GlcNAc(b1-3)Gal(b1-4)GlcNAc(b1-3)Gal(b1-4)GlcNAc(b1-3)Gal(b1-4)GlcNAc(b1-3)Gal(b1-4)GlcNAc(b1-2)Man(a1-3)[GlcNAc(b1-3)Gal(b1-4)GlcNAc(b1-3)Gal(b1-4)GlcNAc(b1-3)Gal(b1-4)GlcNAc(b1-3)Gal(b1-4)GlcNAc(b1-2)Man(a1-6)]Man(b1-4)GlcNAc(b1-4)GlcNAc
Summary of the method: as §1

[13] = molecular target: GlcNAc(b1-3)Gal(b1-4)GlcNAc(b1-3)Gal(b1-4)GlcNAc(b1-3)Gal(b1-4)GlcNAc(b1-3)Gal(b1-4)GlcNAc(b1-2)Man(a1-3)[GlcNAc(b1-3)Gal(b1-4)GlcNAc(b1-3)Gal(b1-4)GlcNAc(b1-3)Gal(b1-4)GlcNAc(b1-3)Gal(b1-4)GlcNAc(b1-2)Man(a1-6)]Man(b1-4)GlcNAc(b1-4)[Fuc(a1-6)]GlcNAc
Summary of the method: as §1

[14] = molecular target: GlcNAc(b1-3)Gal(b1-4)GlcNAc(b1-3)Gal(b1-4)GlcNAc(b1-3)Gal(b1-4)GlcNAc(b1-3)Gal(b1-4)GlcNAc(b1-2)[GlcNAc(b1-3)Gal(b1-4)GlcNAc(b1-3)Gal(b1-4)GlcNAc(b1-3)Gal(b1-4)GlcNAc(b1-3)Gal(b1-4)GlcNAc(b1-6)]Man(a1-6)[GlcNAc(b1-3)Gal(b1-4)GlcNAc(b1-3)Gal(b1-4)GlcNAc(b1-3)Gal(b1-4)GlcNAc(b1-3)Gal(b1-4)GlcNAc(b1-2)Man(a1-3)]Man(b1-4)GlcNAc(b1-4)[Fuc(a1-6)]GlcNAc
Summary of the method: as §1

[15] = molecular target: GlcNAc(b1-3)Gal(b1-4)GlcNAc(b1-3)Gal(b1-4)GlcNAc(b1-3)GalNAc
Summary of the method: as §1

[16] = molecular target: GlcNAc(b1-3)Gal(b1-4)GlcNAc(b1-3)GalNAc
Summary of the method: as §1

[17] = molecular target: GlcNAc(b1-3)Gal(b1-4)GlcNAc(b1-3)[GlcNAc(b1-3)Gal(b1-4)GlcNAc(b1-3)]GalNAc
Summary of the method: as §1

[18] = molecular target: GlcNAc(b1-3)Gal(b1-4)GlcNAc(b1-6)[Gal(b1-3)]GalNAc
Summary of the method: as §1

[19] = molecular target: GlcNAc(b1-3)Gal(b1-4)GlcNAc(b1-6)[GlcNAc(b1-3)Gal(b1-3)]GalNAc
Summary of the method: as §1

[20] = molecular target: GlcNAc(b1-3)Gal(b1-4)GlcNAc(b1-6)[GlcNAc(b1-3)]Gal(b1-4)GlcNAc
Summary of the method: as §1

GlcNAc(b1-3)GalNAc = molecular target: GlcNAc(b1-3)GalNAc
Summary of the method: as §1

GlcNAc(b1-3)Man = molecular target: GlcNAc(b1-3)Man
Summary of the method: as §1

[21] = molecular target: GlcNAc(b1-3)[GlcNAc(b1-4)][GlcNAc(b1-6)]GlcNAc
Summary of the method: as §1

[22] = molecular target: GlcNAc(b1-3)[GlcNAc(b1-6)]Gal(b1-4)GlcNAc
Summary of the method: as §1

[23] = molecular target: GlcNAc(b1-3)[GlcNAc(b1-6)]GalNAc
Summary of the method: as §1

[24] = molecular target: GlcNAc(b1-4)Gal(b1-4)GlcNAc
Summary of the method: as §1

GlcNAc(b1-4)GlcNAc = molecular target: GlcNAc(b1-4)GlcNAc
Summary of the method: as §1

[25] = molecular target: GlcNAc(b1-4)GlcNAc(b1-4)GlcNAc
Summary of the method: as §1

[26] = molecular target: GlcNAc(b1-4)GlcNAc(b1-4)GlcNAc(b1-4)GlcNAc(b1-4)GlcNAc
Summary of the method: as §1

[27] = molecular target: GlcNAc(b1-4)GlcNAc(b1-4)GlcNAc(b1-4)GlcNAc(b1-4)GlcNAc(b1-4)GlcNAc
Summary of the method: as §1

[28] = molecular target: GlcNAc(b1-4)[GlcNAc(b1-6)]GalNAc
Summary of the method: as §1

[29] = molecular target: GlcNAc(b1-6)Gal(b1-4)GlcNAc
Summary of the method: as §1

GlcNAc(b1-6)GalNAc = molecular target: GlcNAc(b1-6)GalNAc
Summary of the method: as §1

[30] = molecular target: GlcNAc6S(b1-3)Gal(b1-4)GlcNAc
Summary of the method: as §1

Kdn(a2-3)Gal(b1-3)GalNAc = molecular target: Kdn(a2-3)Gal(b1-3)GalNAc
Summary of the method: as §1

Kdn(a2-3)Gal(b1-3)GlcNAc = molecular target: Kdn(a2-3)Gal(b1-3)GlcNAc
Summary of the method: as §1

Kdn(a2-3)Gal(b1-4)Glc = molecular target: Kdn(a2-3)Gal(b1-4)Glc
Summary of the method: as §1

Kdn(a2-3)Gal(b1-4)GlcNAc = molecular target: Kdn(a2-3)Gal(b1-4)GlcNAc
Summary of the method: as §1

[31] = molecular target: Kdn(a2-3)Gal(b1-4)[Fuc(a1-3)]GlcNAc
Summary of the method: as §1

Kdn(a2-6)Gal(b1-4)GlcNAc = molecular target: Kdn(a2-6)Gal(b1-4)GlcNAc
Summary of the method: as §1

[32] = molecular target: Man(a1-2)Man(a1-2)Man(a1-3)Man
Summary of the method: as §1

[33] = molecular target: Man(a1-2)Man(a1-2)Man(a1-6)[Man(a1-3)]Man
Summary of the method: as §1

Man(a1-2)Man(a1-3)Man = molecular target: Man(a1-2)Man(a1-3)Man
Summary of the method: as §1

[34] = molecular target: Man(a1-2)Man(a1-3)[Man(a1-2)Man(a1-6)]Man
Summary of the method: as §1

B1: Mincle (Bos taurus) (protein)
chain: MNSSTSPASQTERRCFSFQLFSWAIAGTSILLLSACFITRCVVTYSIFQLCDEKKFQPPGDSMELSCYNDGSGSVKNCCPLKWFHFQSSCYLFSPDTMSWRASLKNCSSMGAHLVVINTQEEQEFLYYTKPRKKEFYIGLTDQVTEGQWQWVDGTPFTKSLSFWDAGEPNNLVIVEDCATIRDSSNPRQNWNDVPCFFNMFRVCEMPERKI
glycan array binding signal (z-score) (GlcNAc(b1-3)Gal(b1-4)Glc): 0.603 | glycan array binding signal (z-score) [1]: -0.12 | glycan array binding signal (z-score) [2]: -0.129 | glycan array binding signal (z-score) [3]: 0.491 | glycan array binding signal (z-score) [4]: 1.42 | glycan array binding signal (z-score) [5]: -0.57 | glycan array binding signal (z-score) [6]: 1.52 | glycan array binding signal (z-score) [7]: 0.26 | glycan array binding signal (z-score) [8]: 0.11 | glycan array binding signal (z-score) [9]: 0.166 | glycan array binding signal (z-score) [10]: -0.142 | glycan array binding signal (z-score) [11]: 1.03 | glycan array binding signal (z-score) [12]: 0.079 | glycan array binding signal (z-score) [13]: -0.454 | glycan array binding signal (z-score) [14]: 1.23 | glycan array binding signal (z-score) [15]: 0.106 | glycan array binding signal (z-score) [16]: -0.297 | glycan array binding signal (z-score) [17]: 0.084 | glycan array binding signal (z-score) [18]: -0.985 | glycan array binding signal (z-score) [19]: -0.472 | glycan array binding signal (z-score) [20]: 0.307 | glycan array binding signal (z-score) (GlcNAc(b1-3)GalNAc): -0.313 | glycan array binding signal (z-score) (GlcNAc(b1-3)Man): -0.182 | glycan array binding signal (z-score) [21]: 5.17 | glycan array binding signal (z-score) [22]: 0.574 | glycan array binding signal (z-score) [23]: 0.888 | glycan array binding signal (z-score) [24]: 0.508 | glycan array binding signal (z-score) (GlcNAc(b1-4)GlcNAc): 0.05 | glycan array binding signal (z-score) [25]: -0.899 | glycan array binding signal (z-score) [26]: -0.226 | glycan array binding signal (z-score) [27]: -0.478 | glycan array binding signal (z-score) [28]: 0.173 | glycan array binding signal (z-score) [29]: 0.257 | glycan array binding signal (z-score) (GlcNAc(b1-6)GalNAc): 0.469 | glycan array binding signal (z-score) [30]: 0.032 | glycan array binding signal (z-score) (Kdn(a2-3)Gal(b1-3)GalNAc): 0.487 | glycan array binding signal (z-score) (Kdn(a2-3)Gal(b1-3)GlcNAc): 0.033 | glycan array binding signal (z-score) (Kdn(a2-3)Gal(b1-4)Glc): -1.1 | glycan array binding signal (z-score) (Kdn(a2-3)Gal(b1-4)GlcNAc): -0.052 | glycan array binding signal (z-score) [31]: -0.508 | glycan array binding signal (z-score) (Kdn(a2-6)Gal(b1-4)GlcNAc): -0.599 | glycan array binding signal (z-score) [32]: 6.56 | glycan array binding signal (z-score) [33]: 4.79 | glycan array binding signal (z-score) (Man(a1-2)Man(a1-3)Man): 3.01 | glycan array binding signal (z-score) [34]: 7.29
